{"source": "PubChem BioAssay AID1671195 (Yale University, 2021)", "purpose": "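Genes whose knockdown alters LDL uptake in liver cancer cells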 (primary screen)", "cell system": "human Huh7 hepatoma cells", "reagent": "siRNA pool against human genes, 18 nM", "timing": "about 2 to 2.5 days of knockdown, then 8 h LDL uptake", "treatment": "DiI-labelled LDL at 30 µg/ml for 8 h, in lipoprotein-deficient serum medium", "detection": "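Fluorescent LDL signal imaged in cells, scaled to the plate median, robust z-score for each replicate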", "scale": "robust z-score: higher = more LDL uptake after knockdown", "rule for the call": "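a gene counts as active if at least two replicate z-scores exceed ±2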", "note": "This is an unselected part of about 22,000 reagents tested. In the full data, about 1,510 (6.9%) were called active. 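Active includes knockdowns raising or lowering LDL uptake; positive z-scores mean more uptake, negative mean less.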"}
{"Target gene":"WDFY1","robust z-score, replicate 1":1.56,"robust z-score, replicate 2":1.43,"robust z-score, replicate 3":1.83,"call":"inactive"}
{"Target gene":"PSMD11","robust z-score, replicate 1":-0.829,"robust z-score, replicate 2":-0.849,"robust z-score, replicate 3":-1.42,"call":"inactive"}
{"Target gene":"RARS1","robust z-score, replicate 1":-0.0629,"robust z-score, replicate 2":-0.335,"robust z-score, replicate 3":-0.239,"call":"inactive"}
{"Target gene":"SLCO1B3","robust z-score, replicate 1":0.565,"robust z-score, replicate 2":0.12,"robust z-score, replicate 3":0.487,"call":"inactive"}
{"Target gene":"IDS","robust z-score, replicate 1":0.861,"robust z-score, replicate 2":0.423,"robust z-score, replicate 3":1.22,"call":"inactive"}
{"Target gene":"LINC02347","robust z-score, replicate 1":-0.136,"robust z-score, replicate 2":-1,"robust z-score, replicate 3":-0.064,"call":"inactive"}
{"Target gene":"ABCC13","robust z-score, replicate 1":-0.131,"robust z-score, replicate 2":0.154,"robust z-score, replicate 3":-0.044,"call":"inactive"}
{"Target gene":"SF1","robust z-score, replicate 1":-0.761,"robust z-score, replicate 2":-1.25,"robust z-score, replicate 3":-1.42,"call":"inactive"}
{"Target gene":"CROCCP3","robust z-score, replicate 1":-0.375,"robust z-score, replicate 2":-2.09,"robust z-score, replicate 3":-1.49,"call":"inactive"}
{"Target gene":"CEP85","robust z-score, replicate 1":-0.53,"robust z-score, replicate 2":-0.144,"robust z-score, replicate 3":-0.722,"call":"inactive"}
{"Target gene":"CATSPER2","robust z-score, replicate 1":0.0238,"robust z-score, replicate 2":-0.53,"robust z-score, replicate 3":0.0178,"call":"inactive"}
{"Target gene":"GOT1L1","robust z-score, replicate 1":0.47,"robust z-score, replicate 2":-0.906,"robust z-score, replicate 3":-0.0993,"call":"inactive"}
